In US6528619B1, “Inhibitors for urokinase receptor” (Roche Diagnostics GmbH, priority 1997, dated 2003) one finds binding data, which are given here for one molecule.

By UniProt entry, the sequences of proteins in these tests, tags left out. Residues count along the entry.
UniProt Q03405, residues 23-299: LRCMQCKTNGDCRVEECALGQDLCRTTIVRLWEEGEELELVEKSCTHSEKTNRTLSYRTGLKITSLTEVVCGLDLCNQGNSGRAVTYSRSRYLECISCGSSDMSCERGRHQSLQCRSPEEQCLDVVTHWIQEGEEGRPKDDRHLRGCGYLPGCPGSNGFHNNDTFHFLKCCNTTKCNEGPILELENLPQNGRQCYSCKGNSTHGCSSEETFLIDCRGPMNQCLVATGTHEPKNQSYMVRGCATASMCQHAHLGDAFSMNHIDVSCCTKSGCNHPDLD

These are yes or no findings as the source states them, for the method shown. Some results given as binding are weak or reduced against the parent protein; the word gives no strength.

The target of this test is T1, recombinant human uPAR from CHO cells (human, UniProt Q03405 23-299, limits assumed).
T1 construct: Magdolen et al. 1995; also called immobilized uPAR
Kind of test: solid phase binding test, competition with ATF on immobilized recombinant uPAR.

On to CVSNKYFSNIHWC (Linear form) [linear peptide uPA19-31], for which the binding entry was “binds”.
